Source: PubChem BioAssay AID1671190 (National Center for Advancing Translational Sciences (NCATS), 2021)
The campaign covered roughly 580,000 compounds. About 6,100 (1.1%) were called active. This list was built around the results that the source calls inconclusive (neither active nor inactive); the mix of calls is not that of the screen. Calls follow the shape of the dose curve; as a rule, active = well fitted inhibition curve with a large enough effect; inconclusive = small, poorly fitted or top-dose-only effect, or another doubt; inactive = no such curve, though single readings can be large or run the other way. Potencies beside an inconclusive call are fits to weak or partial responses and may not hold up.
% is scaled to controls: 0 for no effect and ±100 for the full control effect; potency is read from the fitted curve at half-maximal effect.

Amino acid sequences for entries named in this document (tags omitted). A change or cut given only in a name is not applied to a line headed by its entry.
UniProt P18054: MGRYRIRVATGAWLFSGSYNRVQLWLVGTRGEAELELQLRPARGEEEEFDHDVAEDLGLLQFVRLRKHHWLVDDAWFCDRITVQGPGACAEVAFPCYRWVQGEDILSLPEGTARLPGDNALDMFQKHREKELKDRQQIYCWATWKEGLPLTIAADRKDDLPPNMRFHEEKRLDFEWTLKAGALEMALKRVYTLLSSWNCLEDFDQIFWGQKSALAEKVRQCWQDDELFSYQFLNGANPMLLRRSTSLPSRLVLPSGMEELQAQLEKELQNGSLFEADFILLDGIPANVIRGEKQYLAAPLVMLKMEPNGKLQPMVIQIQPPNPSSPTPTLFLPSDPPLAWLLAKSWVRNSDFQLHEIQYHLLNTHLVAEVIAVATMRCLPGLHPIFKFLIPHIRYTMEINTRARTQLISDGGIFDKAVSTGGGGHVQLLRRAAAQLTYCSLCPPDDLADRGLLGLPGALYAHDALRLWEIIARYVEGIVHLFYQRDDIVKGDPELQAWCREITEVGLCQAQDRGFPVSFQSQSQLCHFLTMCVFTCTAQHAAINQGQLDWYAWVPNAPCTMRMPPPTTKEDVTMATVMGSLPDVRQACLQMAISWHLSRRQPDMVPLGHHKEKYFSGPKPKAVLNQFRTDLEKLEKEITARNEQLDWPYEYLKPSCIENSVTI

Each molecule was assayed against Polyunsaturated fatty acid lipoxygenase ALOX12 (Homo sapiens) (UniProt P18054) (assay: Primary qHTS assay for inhibitors of human arachidonate 12S-lipoxygenase (ALOX12): Round 2). Conditions: purified 12hLO, xylenol orange hydroperoxide absorbance; activity change, negative = inhibition: at 108 µM (top of the series) unless noted.
Summary of the method: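 Purified human 12hLO at 150 nM in 25 mM Hepes, 0.01% Triton X-100, pH 7.0, preincubated 15 min at room temperature with compound. Reaction started with 40 uM arachidonic acid, 30 min at room temperature. Hydroperoxide measured by Fe-xylenol orange, 573/405 nm absorbance ratio.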
For `CC(=O)c1c(C)[nH]c(-c2csc(NCC(C)C)n2)c1C`, the “activity change, negative = inhibition” value was inactive: 23.8%.
`O=C1S/C(=C/c2ccc(N3CCOCC3)o2)C(=O)N1Cc1ccc(F)cc1` was tested, and the Potency was active: 10 µM.
With `CC(C)(C)OC(=O)N[C@@H](Cc1ccccc1)c1nnc(SCC(=O)c2ccc(Cl)cc2)o1` the “activity change, negative = inhibition” value was inactive: 3.49%.
With `CNC(=O)N1C[C@@H](CN(C)C)[C@H](NS(=O)(=O)c2c(C)noc2C)C1` the Potency was inconclusive: 50.1 µM [inhibitor, partial curve].
For `COC(=O)c1ccc(COC(=O)C2COc3ccccc3O2)o1` (stereo not drawn), the Potency was inconclusive: 100 µM [inhibitor, single point].
With `CCC(Sc1ncccc1C(=O)OC(C)C)C(=O)NCc1ccco1` (stereo not drawn) the Potency was inconclusive: 44.7 µM [inhibitor, partial curve, poor fit].
For `CN(CCOc1ccc(Cl)cc1)CC(O)c1ccccc1` (stereo not drawn), the Potency was inconclusive: 20 µM [inhibitor, partial curve, poor fit].
With `COC(=O)C1=C(C(=O)OC)[N+]2=C3N(C(=O)NC2(C)C)[C@H](CO)C[C@@]32c3ccccc3N(Cc3ccccc3)[C@@H]12` the Potency was inconclusive: 50.1 µM [inhibitor, partial curve, poor fit].
With `N#Cc1ccc(-c2cn(-c3ccccc3)c3[n+]2CCCS3)cc1` the Potency was inconclusive: 2.24 µM [inhibitor, full curve, poor fit].
With `O=C(O)c1ccccc1NSc1ccccc1[N+](=O)[O-]` the Potency was inconclusive: 44.7 µM [inhibitor, partial curve, poor fit].
With `CN(C)c1ccc(NC2=C(C(N)=O)S(=O)(=O)c3ccccc32)cc1` the Potency was inconclusive: 50.1 µM [inhibitor, partial curve, poor fit].
For `O=C(c1cccn1-c1nnc(N2CCCC2)s1)N1CCN(c2ccc(Cl)cc2)CC1`, the Potency was inconclusive: 126 µM [inhibitor, partial curve, poor fit].
`Cc1ccc(NC(=O)CN(C)Cc2cc(=O)oc3c(C)c(O)ccc23)cc1` was tested, and the Potency was inconclusive: 39.8 µM [inhibitor, partial curve].
With `CC(C)(C)c1ccc(OCCC(=O)NCCc2ccc(S(N)(=O)=O)cc2)cc1` the Potency was inconclusive: 100 µM [inhibitor, single point].
In the case of `COc1cccc(-c2cc3c(Nc4cccc(F)c4)nccc3[nH]2)c1`, the Potency was inconclusive: 50.1 µM [inhibitor, partial curve, poor fit].
For `c1ccc2c(c1)nc(N1CCCCCC1)c1ccccc12`, the Potency was inconclusive: 126 µM [inhibitor, partial curve, poor fit].
In the case of `CCCCCCc1ccc(C(=O)Cn2cnc3c2c(=O)n(C)c(=O)n3C)cc1`, the Potency was inconclusive: 50.1 µM [inhibitor, partial curve, poor fit].
In the case of `Cc1ccnc(Nc2nc(-c3ccc(Cl)cc3)cs2)c1`, the Potency was inconclusive: 6.31 µM [inhibitor, full curve, poor fit].
`Cc1ccc2nccc(C(=O)N3CCCC(Nc4ccc(F)cc4)C3)c2c1` (stereo not drawn) was tested, and the “activity change, negative = inhibition” value was inactive: -3.96%.
With `CC1CCc2nn(CC(=O)Nc3ccc(Cl)cc3)c(=O)cc2C1` (stereo not drawn) the Potency was inconclusive: 20 µM [inhibitor, partial curve, poor fit].
In the case of `CCc1cccc(C)c1N1C(=O)CN(Cc2ccccc2)C1=S`, the Potency was inconclusive: 44.7 µM [inhibitor, partial curve, poor fit].
For `COc1ccc2c(C)cc(SCC(=O)N(C)Cc3ccccc3)nc2c1`, the Potency was inconclusive: 0.251 µM [inhibitor, full curve, poor fit].
For `Cc1cc(Cl)ccc1OCCCC(=O)NCCN1C(=O)S/C(=C\c2cccnc2)C1=O`, the “activity change, negative = inhibition” value was inactive: -20.3%.
With `O=C(CCSc1nc(Cl)nc2nc[nH]c12)N1CCN(Cc2ccccc2)CC1` the Potency was inconclusive: 56.2 µM [inhibitor, partial curve, poor fit].
`COc1cccc(/C=N/Nc2ccc(S(=O)(=O)Nc3ccccc3C(=O)O)cc2[N+](=O)[O-])c1O` was tested, and the Potency was inconclusive: 44.7 µM [inhibitor, partial curve, poor fit].
With `COc1ccc(Cn2c(C(=O)O)c(CNCCc3cc(OC)ccc3OC)c3ccc(C)cc32)cc1` the “activity change, negative = inhibition” value was inactive: -19.2%.
`CN(c1ccc(F)cc1)S(=O)(=O)c1ccc(Cl)c(C(=O)NCC2(N3CCOCC3)CCCCC2)c1` was tested, and the “activity change, negative = inhibition” value was inactive: -2.95%.
For `COc1ccc([C@H]2C[C@@H](n3cc(COC(=O)c4ccccc4)nn3)[C@H](O)CN2C(=O)C2CCCCC2)cc1`, the Potency was inconclusive: 50.1 µM [inhibitor, partial curve, poor fit].
For `CC1(C(=O)NS(C)(=O)=O)CCN1C(=O)Cc1ccc(-c2ccccc2)cc1` (stereo not drawn), the Potency was inconclusive: 17.8 µM [inhibitor, full curve].
`O=C(NS(=O)(=O)c1ccccc1[N+](=O)[O-])c1ccccc1` was tested, and the Potency was active: 11.2 µM.
`CCOc1ccc(N2C(=O)c3ccccc3NC23CCSC3)cc1` (stereo not drawn) was tested, and the Potency was inconclusive: 70.8 µM [inhibitor, partial curve, poor fit].
In the case of `COCCNC(=O)C(=O)N1CCN(c2nc(C(C)C)c3c(c2C#N)CCCC3)CC1`, the activity change, negative = inhibition was inconclusive: -35.3% [inhibitor].
For `Cc1ccccc1NC(=S)Nc1ccc2[nH]c(=O)[nH]c2c1`, the Potency was inconclusive: 56.2 µM [inhibitor, partial curve, poor fit].
`CCOc1ccc(CCNC(=O)c2cnc3sc(N4CCCC4)nn3c2=O)cc1` was tested, and the Potency was inconclusive: 112 µM [inhibitor, partial curve, poor fit].
With `COC(=O)[C@@]1(Sc2ccc(C)cc2)CC(=O)N(C(=O)c2ccccc2)[C@@H]1c1ccccc1` the Potency was inconclusive: 50.1 µM [inhibitor, partial curve, poor fit].
In the case of `CCc1cc(=O)oc2c(C)c(OC(C)C(=O)NCc3ccncc3)ccc12` (stereo not drawn), the “activity change, negative = inhibition” value was inactive: -1.54%.
With `CC1=C(C(=O)N(C)C)CC(CC(=O)NCc2cccs2)C(=O)N1Cc1ccc(F)cc1` (stereo not drawn) the Potency was inconclusive: 35.5 µM [inhibitor, partial curve, poor fit].
For `CN(CC(=O)Nc1cccc(F)c1)C(=O)c1cn(-c2ccccc2)nc1-c1ccc(F)cc1`, the Potency was inconclusive: 112 µM [inhibitor, single point].
